# Measured values as given in PubChem BioAssay AID588345 (Broad Institute, 2011).
# Screen size: about 1,300 compounds; about 850 (65%) were called active. The set was probably picked from earlier hits. Inconclusive results, whose numbers are uncertain, are shown with a selection of clear calls. The rule behind the calls is not given here.
# Molecular target: Dual specificity tyrosine-phosphorylation-regulated kinase 1A (Rattus norvegicus) (UniProt Q63470)
# Test: rat Dyrk1A kinase inhibitors, dose response, biochemical, cherry-pick, plate reader, 2124-01 (AID 588345)
# Conditions: Dyrk1A kinase biochemical assay; at 12 µM (top of the series)
row,SMILES,"activity change, negative = inhibition"
1,O=[N+]([O-])c1cc(/C=N/O)ccc1N1CCCC1,inconclusive: -0.818%
2,Cc1ccc(C(=O)c2coc3ccc(OCC(=O)O)cc23)cc1,inactive: -3.85%
3,O=C(NC(Nc1nc2ccc([N+](=O)[O-])cc2s1)(C(F)(F)F)C(F)(F)F)c1ccccc1,inactive: 15.1%
4,CCN1CCN(Cc2ccc(NC(=O)c3cc(NC(=O)c4nccnc4N)cc(OC)c3)cc2C(F)(F)F)CC1,inconclusive: -10.8%
5,Cc1noc(C)c1-c1ccc2ncnc(NC(C)c3ccco3)c2c1 (configuration not stated),inactive: 8.27%
6,CCN(CC)CCNC(=O)c1cc2c(=O)n(C)c3ccccc3c2n1C,inconclusive: 5.37%
7,CCCCC(CC)CN=C(N)NC(N)=NCCCCCCN=C(N)NC(N)=NCC(CC)CCCC (configuration not stated),inconclusive: -26%
8,Oc1ccc2c(ccc3[nH]cnc32)c1,inactive: -2.1%
9,CC(C)CC(NC(=O)C1CCC(C)CC1)C(=O)Nc1ccc2c(c1)OCCO2 (configuration not stated),inactive: -0.401%
10,CC(C)Oc1ccc(C(CC(=O)NCc2ccco2)c2ccccc2)cc1 (configuration not stated),inactive: 6.23%
11,Cc1ccc(C(=O)Nc2ccnc(-c3cccnc3)n2)cc1,inconclusive: -12.9%
12,O=C1CCCc2c1cc(C(=O)NCCCN1CCOCC1)c(=O)n2-c1ccc(Cl)cc1,inactive: 15.7%
13,CCC(=O)N1CCN(c2ccnc3cc(Cl)ccc23)CC1,inconclusive: -26.9%
14,C=CCSc1nc(NC)c2sccc2n1,inconclusive: 5.1%
15,O=C(N/N=C/c1cccc(O)c1)N/N=C/c1cccc(O)c1,inconclusive: -36.8%
16,OCc1cc(C(O)CNCCCCCCOCCCCc2ccccc2)ccc1O (configuration not stated),inconclusive: 9.93%
17,O=c1c2c3c(sc2n2c(=S)[nH]nc2n1-c1ccccc1)CCC3,inconclusive: -1.98%

# Quoted from above: compounds 10–11
row,SMILES,"activity change, negative = inhibition"
10,CC(C)Oc1ccc(C(CC(=O)NCc2ccco2)c2ccccc2)cc1 (configuration not stated),inactive: 6.23%
11,Cc1ccc(C(=O)Nc2ccnc(-c3cccnc3)n2)cc1,inconclusive: -12.9%
